This passage reports cell number change and AC50 results from PubChem BioAssay AID2685 (National Center for Advancing Translational Sciences (NCATS), 2010).

This test can be described thus: qHTS Assay for Lipid Storage Modulators in Drosophila S3 Cells.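 For cell number change: cells counted by Cell Tracker Red CMTPX staining in the red channel.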 To be noted: BODIPY lipid droplet fluorescence, 18-24 h; for cell number change: measured here: cell count max response, cells fed with added oleic acid. In short, it runs like this: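 Drosophila S3 cells loaded with oleic acid (400 uM, as added) and compounds at several concentrations; lipid droplets imaged by 488-nm laser-scanning cytometry, 500–530 nm intensity and object ratio to cell channel. Percent activity normalized to 20 uM Triacsin C.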
In general terms: qHTS replaces the single test concentration by a dilution series.

Setting [1] is: measured here: lipid fluorescence (Fed channel) AC50, cells fed with added oleic acid.
Setting [2] is: measured here: cell number channel AC50, cells fed with added oleic acid.

The other results are listed elsewhere or left out. These are further read-outs of the screen, such as a control signal, another cell line or another target. No call is given for them. Most of these compounds were active or inconclusive in the main read-out, so they are no random draw. Words in brackets tell the shape of the fitted curve; partial curves, single points and poor fits give uncertain potencies.

In the case of `CCCc1cc(=O)[nH]c(SCC(=O)Nc2cccc3ccccc23)n1`, the cell number change came to 9.91%. The AC50 under setting [1] was 29.1 µM [rising, single point].
Regarding `Cc1nc(NC(=O)CSc2nnc(C3CC3)n2C)sc1C`, the cell number change is -12.4%.
On the same count and under the same terms, under `CCOc1cc(NC(=S)NCCCN2CCOCC2)c(OCC)cc1NC(=O)c1ccco1` stands 1.39%.
As to `O=C(CSc1nnc(NC2CC2)s1)Nc1ccc(N2CCOCC2)cc1`, the cell number change is 20.7%. Also, under setting [1], the AC50 is 1.84 µM [rising, partial curve, poor fit].
For the molecule `Cc1c(C(=O)N(C)c2cccc(Cl)c2)cnn1-c1ccccc1`, the cell number change was determined as 10.9%.
With `COc1ccc(CCN=c2c([N+](=O)[O-])nn(-c3cccc(C)c3)n2O)cc1OC`, the cell number change turned out to be 19.2%. Further, under setting [2], the AC50 is 0.92 µM [rising, full curve, poor fit]. The AC50 under setting [1] is 1.03 µM [rising, full curve, poor fit].
Take `CC1=[N+](C)N(c2ccccc2)C(=O)C1N=Cc1ccccc1Cl` (stereo not drawn): the cell number change was found to be 36.1%. Moreover, the AC50 under setting [2] is 11.6 µM [rising, single point]. Under setting [1], the AC50 is 4.11 µM [rising, full curve, poor fit].
For `CCCCCCSc1ccc([C@H]2N[C@@](CC(C)C)(C(=O)OC)[C@H]3C(=O)N(CC)C(=O)[C@@H]23)cc1`, the cell number change was 18.1%. For the same molecule, the AC50 under setting [1] is 2.91 µM [rising, partial curve].
In the case of `CSc1nc(N)n2nc(-c3ccccc3)cc2n1`, the cell number change turned out to be 15.2%. Besides, the half-maximal activity concentration (AC50) under setting [1] was 1.3 µM [rising, full curve, poor fit].
Take `CCC(N1CCOC1=O)S(=O)(=O)c1ccc(C)cc1` (stereo not drawn): the AC50 under setting [1] was 23.1 µM [falling, partial curve].
Regarding `O=C(Cn1nnc(-c2ccc(S(=O)(=O)N3CCCC3)cc2)n1)NCC1CCCO1` (stereo not drawn), the cell number change is -40.6%. Besides, the AC50 under setting [2] was 0.82 µM [falling, full curve, poor fit]. The AC50 under setting [1] was 0.00461 µM [rising, full curve, poor fit].
Consider `Cc1cc(C)n2nc(SCC(=O)N(CCC#N)c3ccc(F)cc3)nc2n1`, for which the cell number change turned out to be 2.98%. The AC50 under setting [1] was 16.4 µM [rising, single point].
For `CC(=O)C(/C=N/c1cc(-c2ccc(C)cc2)nn1-c1ccccc1)=C(\C)O`, the cell number change amounted to 21.7%. Further, the AC50 under setting [1] is 0.231 µM [rising, partial curve, poor fit].
Take `NC(=O)COc1ccc(/C=N/NS(=O)(=O)c2ccccc2)cc1`: the cell number change was -5.7%.
On to `Cc1cc(=O)[nH]c(SCC2(O)C3CC4CC(C3)CC2C4)n1` (stereo not drawn), for which, under setting [1], the AC50 is 20.6 µM [falling, partial curve].
With `Cc1nnc(SCC(=O)N2c3ccccc3C(C)(c3ccccc3)CC2(C)C)s1` (stereo not drawn), the cell number change was -1.59%. In addition, under setting [2], the AC50 is 4.61 µM [falling, single point]. Under setting [1], the AC50 was 3.26 µM [falling, single point].
As to `O=C(CNC(=O)c1ccco1)OCC(=O)c1ccc2c(c1)CCCC2`, the cell number change turned out to be 28.6%. For the same molecule, the AC50 under setting [1] was 0.82 µM [rising, full curve, poor fit].
Consider `Cc1nn(-c2ccccc2)c(C)c1NC(=O)COC(=O)c1cc(Cl)ccc1O`, for which the cell number change is -18.7%. Besides, the AC50 under setting [1] was 6.51 µM [falling, partial curve, poor fit].
Take `CCC1(CC)C(=O)N(C)C(=O)NC1=Nc1ccccc1`: the cell number change is 10.8%. Further, the AC50 under setting [1] was 13 µM [falling, partial curve, poor fit].
In the case of `CC(C)CNC(=O)CC(NCC(C)C)C(=O)O` (stereo not drawn), the cell number change is -43.3%. Further, the AC50 under setting [2] is 8.2 µM [falling, partial curve].
As to `C/C(CC(=O)Nc1ccc2ccccc2c1)=N\NC(=O)c1ccc(O)c(O)c1`, the cell number change was -3.04%. In addition, under setting [1], the concentration at half-maximal activity (AC50) is 29.1 µM [falling, single point].
For `O=C(C(Cl)Cl)N1c2ccccc2OCC1c1ccccc1` (stereo not drawn), the AC50 under setting [1] was 29.1 µM [falling, single point].
Regarding `CN1CCN(S(=O)(=O)c2ccc(Oc3ccc(F)c(Cl)c3)nc2)CC1`, the cell number change is -1.5%. Besides, the AC50 under setting [1] is 0.58 µM [falling, single point].
Take `Nc1nnc(SCC(=O)N2CCN(c3ccccc3)CC2)s1`: the cell number change turned out to be 3.87%.
In the case of `CCn1cc(CN2N=C(C)CC2c2ccccc2)c(C)n1` (stereo not drawn), under setting [1], the AC50 is 29.1 µM [rising, single point].
As for `COc1ccc(-n2nc(C(=O)NCC(=O)N3CCN(c4ccccc4)CC3)c3ccccc3c2=O)cc1OC`, the cell number change came out at 0.794%. Besides, under setting [2], the AC50 was 6.51 µM [rising, single point].
Turning to `O=C(NCc1ccc2c(c1)OCO2)c1ccncc1`, the cell number change came out at 21.7%. Besides, the AC50 under setting [1] was 20.6 µM [rising, single point].
As for `COc1ccc(C(C)NC(=O)c2ccc(Cl)cc2)cc1OC` (stereo not drawn), the cell number change stood at 4.01%. Also, the AC50 under setting [2] was 6.51 µM [rising, single point].
As to `CC[N+](C)(CC)CCOC(=O)C(O)(c1ccccc1)C1CCCCC1` (stereo not drawn), the AC50 was 0.731 µM [rising, full curve, poor fit] under setting [2] and 0.0326 µM [rising, full curve, poor fit] under setting [1].
Take `COC(=O)c1c(NC(=O)CSc2nnnn2-c2ccccc2)sc2c1CCCC2`: the cell number change came to 2.17%.
Regarding `CCOC(=O)C1CCCN(C(=O)CCc2nc3sc4c(c3c(=O)[nH]2)CCCC4)C1` (stereo not drawn), the cell number change was 14.7%. Besides, the AC50 under setting [1] is 11.6 µM [rising, partial curve, poor fit].
As for `COc1cc2nc(C3CCC3)n(NC(=O)C3CCCC(OC)C3)c(=O)c2cc1OC` (stereo not drawn), the cell number change stood at 1.26%. For the same molecule, the AC50 under setting [1] is 4.61 µM [falling, single point].
Regarding `COC(=O)c1ccccc1S(=O)(=O)Oc1ccc(-c2ccc(C(=O)O)cc2)cc1`, the cell number change was -3.85%.
The same measure, in the same setting: under `CC1CN(C(=O)c2ccc(S(=O)(=O)Nc3ccccc3F)cc2)CC(C)O1` (stereo not drawn) stands 6.83%.
On to `COc1ccc(C(=O)CSc2nnc(CNC(=O)c3ccc(OC)cc3)n2C)cc1`, for which the AC50 under setting [2] was 1.84 µM [rising, single point] and the AC50 under setting [1] is 2.06 µM [rising, partial curve].
In the case of `CC(=O)Nc1ccc(C(=O)CSc2nnc(Cc3ccccc3)o2)cc1`, the AC50 under setting [2] is 1.46 µM [rising, partial curve, poor fit].
With `CNC(=S)Nc1ccc2[nH]c(=O)[nH]c2c1`, the cell number change was determined as 150%. For the same molecule, under setting [2], the AC50 was 20.6 µM [rising, partial curve].
On to `CC(C)N1CCc2c(sc(NC(=O)C3CCCCC3)c2C(N)=O)C1`, for which the cell number change was 10.1%. Also, the half-maximal activity concentration (AC50) under setting [1] is 0.00517 µM [falling, full curve, poor fit].
Regarding `O=C(COC(=O)/C=C/c1ccc(OC(F)F)cc1)NC1CCCC1`, the cell number change amounted to 0.423%. Under setting [1], the AC50 is 0.116 µM [falling, full curve].
With `Nc1ccc(/C=C/c2ccc3ncccc3c2)cc1`, the cell number change is 26.7%. In addition, the AC50 under setting [1] was 6.51 µM [rising, partial curve, poor fit].
Take `NS(=O)(=O)c1ccc(NC(=O)CN2CCc3ccccc32)cc1`: the cell number change amounted to 12.6%. Also, under setting [1], the AC50 was 0.00461 µM [falling, full curve, poor fit].
Turning to `Cc1cc(C)cc(C(=O)Nc2nnc(SCC(=O)NCC3CCCO3)s2)c1` (stereo not drawn), the cell number change was -36.9%. Besides, the AC50 under setting [2] is 0.92 µM [falling, full curve, poor fit].
With `O=C(c1cc(-c2ccc(Cl)cc2)on1)N1CCc2ccccc2C1`, the cell number change was found to be 26.5%. In addition, the AC50 under setting [1] is 6.51 µM [falling, single point].
Take `Cc1ccc(C(=O)Nc2ccc(OCc3ccccc3)cc2)cc1[N+](=O)[O-]`: the cell number change worked out at 2.59%. Besides, under setting [1], the AC50 is 3.66 µM [falling, single point].
As to `O=C1C=C(c2ccccc2)C(=O)N1Nc1ccccc1`, the cell number change is -11.9%. The AC50 under setting [2] was 0.082 µM [falling, full curve, poor fit].
In the case of `COc1ccc(N(CC(=O)NC2CCCCCC2)S(=O)(=O)c2ccccc2)cc1Cl`, the cell number change is -11.7%. In addition, the AC50 under setting [1] is 29.1 µM [falling, single point].
Take `c1ccc(-n2nnnc2SCCCSc2nc3ccccc3s2)cc1`: the cell number change is 16.6%.
For `Cc1ccc(SCc2nn(C)c(Cl)c2C=O)cc1`, the cell number change was -22.1%. Besides, the AC50 under setting [1] was 7.31 µM [falling, single point].
For `COc1ccccc1-c1noc(-c2ccccc2C(=O)Nc2cccnc2)n1`, the cell number change came out at 0.45%. Also, under setting [2], the AC50 was 1.3 µM [rising, partial curve]. Also, under setting [1], the AC50 is 0.731 µM [rising, full curve].
As for `Cc1ccccc1/C=N/NC(=O)Cc1ccc(Cl)cc1`, the cell number change is -35.7%. Besides, the AC50 under setting [2] was 29.1 µM [falling, single point]. Under setting [1], the AC50 is 29.1 µM [falling, single point].
For the molecule `NNC(=O)CCC(=O)Nc1ccccc1`, the cell number change is -0.704%. For the same molecule, under setting [2], the AC50 is 0.326 µM [falling, full curve]. Further, the AC50 under setting [1] was 0.461 µM [falling, full curve].
In the case of `Cn1c(N)c(C(=O)COC(=O)c2cc(C(F)(F)F)nc3ccccc23)c(=O)n(Cc2ccccc2)c1=O`, the cell number change was 32.9%. Further, the AC50 under setting [2] was 9.2 µM [rising, partial curve, poor fit]. In addition, under setting [1], the AC50 is 8.2 µM [rising, partial curve, poor fit].
Regarding `Cc1ccc(C(=O)N2CCC(C)CC2)cc1NC1=NC2CS(=O)(=O)CC2S1` (stereo not drawn), the cell number change is 18.3%. Under setting [2], the AC50 is 0.146 µM [rising, full curve, poor fit]. The AC50 under setting [1] was 23.1 µM [rising, single point].
On to `O=C(N/N=C/c1ccc(OC(F)F)cc1)c1ccc(CSc2nc3ccccc3[nH]2)cc1`, for which the cell number change stood at 5.13%. For the same molecule, under setting [1], the AC50 is 9.2 µM [rising, partial curve].
Take `O=C(CCn1c(=O)oc2ccc(Cl)cc21)N1CCN(c2ccccc2)CC1`: the cell number change was 21.8%.
Turning to `C=CCNC(=S)NNC(=O)c1ccc(OCC(C)C)cc1`, the cell number change worked out at 29.5%. In addition, under setting [1], the half-maximal activity concentration (AC50) is 2.31 µM [rising, partial curve].
Consider `Cc1ccc(Cl)cc1NC(=O)Cn1nc(-c2cccs2)ccc1=O`, for which the cell number change came to 17.6%. In addition, the AC50 under setting [2] is 1.64 µM [rising, partial curve].
`COc1ccc(CCN2CN(S(=O)(=O)c3ccc(C)cc3)c3nc4ccccc4nc32)cc1OC`: the cell number change stood at 11%. Besides, under setting [1], the AC50 is 2.59 µM [rising, partial curve].
On to `COc1ccc(NS(=O)(=O)c2ccc(NC(=S)NC(=O)CC(C)C)cc2)cc1`, for which the cell number change was -3.44%. In addition, the AC50 under setting [1] is 8.2 µM [rising, partial curve].
As to `CCOC(=O)C1=NN(c2ccc(C)cc2)CC1C(=O)OC` (stereo not drawn), the cell number change came to 11.8%.

A word on the AC50: it is the concentration at which the activity in the assay is half-maximal.
